A word on the AC50: it is the concentration giving half of the maximal activity seen.

The experiment can be described thus: IkB Signaling. The settings on record: ABC-DLBCL IkBa-CBG/CBR dual luciferase ratio (green luciferase fused to IkBa over red control in OCI-Ly3 lymphoma cells), 4 h. In a few lines:
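In this assay, an IκBα–CBG68 fusion accumulates when IKK-driven degradation is blocked; native CBR normalizes for cell number. OCI-Ly3 cells were treated 4 h with compound and doxycycline, then green and red light read after Chroma-Glo addition.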

Setting [1] is: measured here: control luc red channel unless noted.

SMILES strings stand for the structures. The list shows a part of the results. The main result of the screen is listed elsewhere. These columns were measured beside it and carry no call. Most of these compounds were active or inconclusive in the main read-out, so they are no random draw. Words in brackets tell the shape of the fitted curve; partial curves, single points and poor fits give uncertain potencies.

As for `CCCCN(C(=O)Nc1ccc(Cl)cc1)C1CCN(C(C)=O)CC1`, the AC50 under setting [1] is 0.0631 µM [rising, full curve, poor fit]. Same read-out and setting: the value for `O=C(NC1CCCCC1)c1ccc(CSc2nc3ccncc3n2Cc2ccccc2)cc1` was 15.8 µM [falling, partial curve]; that for `Cc1ccc(NC(=O)Cn2c(=O)n(CCCC(=O)NCc3ccc4c(c3)OCO4)c(=O)c3ccccc32)cc1` was 7.94 µM [falling, full curve, poor fit]; that for `O=C(CSc1ccc(-c2nc3ccccc3[nH]2)cn1)N1CCN(C(=O)c2ccco2)CC1` was 25.1 µM [falling, partial curve]. `O=C(Cn1cc(C(=O)c2cccs2)c2ccccc21)NCc1cccs1`: under setting [1], the AC50 is 12.6 µM [falling, partial curve].

`CCc1ccc2oc(-c3ccc(NC(=O)c4cccc(Cl)c4Cl)cc3)nc2c1`: the AC50 under setting [1] was 3.16 µM [falling, full curve]. Same read-out and setting: the value for `CCOc1ccc(/C=C/c2nc(C#N)c(NCCCN(C)C)o2)cc1` was 15.8 µM [falling, single point]. As for `COC(=O)c1ccccc1NC(=O)Cn1c(=O)n(CCCC(=O)NCc2ccccc2Cl)c(=O)c2ccccc21`, the AC50 under setting [1] is 10 µM [falling, partial curve]. `O=C(COc1ccccc1Cl)N(Cc1cccc(F)c1)C1CCS(=O)(=O)C1` (configuration not stated): the concentration at half-maximal activity (AC50) under setting [1] was 15.8 µM [falling, partial curve]. As to `COc1ccccc1N1CCN(C(=O)c2cc3c(-c4ccccc4F)nn(C)c3s2)CC1`, the half-maximal activity concentration (AC50) under setting [1] is 12.6 µM [falling, partial curve]. Regarding `Cc1ccc(-n2c(=O)c3c(cnn3C)n(CC(=O)Nc3cccc(C)c3)c2=O)cc1`, under setting [1], the concentration at half-maximal activity (AC50) is 3.16 µM [falling, full curve]. On to `COc1ccc2c(c1)CC(C(=O)NCCc1ccc(S(N)(=O)=O)cc1)CO2` (configuration not stated), for which the AC50 under setting [1] was 0.0794 µM [falling, full curve]. As to `O=C(O)c1cccc(COc2ccc(CO)cc2Cl)c1`, the half-maximal activity concentration (AC50) under setting [1] was 1.58 µM [falling, full curve]. In the case of `O=C1c2ccccc2C(=O)N1CCCc1nc(-c2ccccn2)no1`, the AC50 under setting [1] is 10 µM [falling, partial curve]. Still for that read-out and setting: the value for `COc1cc2ccccc2cc1C(=O)N1CCN(c2nc3c(F)cc(F)cc3s2)CC1` was 39.8 µM [falling, single point]; that for `Cc1noc(C)c1-c1ccc2ncnc(NCc3cccnc3)c2c1` was 3.16 µM [rising, partial curve] [measured here: IkB-luc green channel]; that for `CC1=C(C(=O)Nc2cccnc2)C(c2ccccc2Cl)n2nc(-c3ccccc3)nc2N1` (configuration not stated) was 12.6 µM [falling, partial curve].

As to `CCCS(=O)(=O)C(=C1Nc2ccccc2N1)S(=O)(=O)CCC`, under setting [1], the half-maximal activity concentration (AC50) was 7.94 µM [falling, partial curve]. As to `COc1ccc(CCNC(=O)c2ccc(Cn3c(SCC(=O)NCCC(C)C)nc4cc5c(cc4c3=O)OCO5)cc2)cc1OC`, the AC50 under setting [1] is 31.6 µM [rising, single point] [measured here: IkB-luc green channel]. As for `c1ccc(-c2cnc(-c3cccnc3)o2)cc1`, under setting [1], the AC50 was 0.316 µM [rising, full curve, poor fit].

Turning to `Clc1cccc(-n2ncc3c(NCCCN4CCOCC4)ncnc32)c1`, the half-maximal activity concentration (AC50) under setting [1] was 0.631 µM [falling, full curve]. For the compound `COc1ccc(-c2noc(CN(C(=O)c3c(-c4ccccc4Cl)noc3C)C(C)C)n2)cc1`, the AC50 under setting [1] was 15.8 µM [falling, partial curve]. Consider `CC(=O)c1c(C)n(-c2ccc(C)cc2)c2ccc(OC(=O)COc3ccccc3)cc12`, for which the concentration at half-maximal activity (AC50) under setting [1] was 15.8 µM [falling, partial curve]. As for `COc1cc(-c2ccno2)ccc1S(=O)(=O)N1CCN(c2ccccc2)CC1`, the AC50 under setting [1] was 25.1 µM [falling, single point]. As for `O=C(CSc1nnc(CNc2ccc(F)cc2)o1)N1CCCc2ccccc21`, under setting [1], the AC50 is 15.8 µM [falling, partial curve]. The same measure, in the same setting: the value for `Cc1ccc(N2C(=O)CCSC23C(=O)N(Cc2ccc(F)cc2)c2ccccc23)cc1` (configuration not stated) was 12.6 µM [falling, partial curve]; that for `CCOc1cccc(C(=O)N(Cc2ccc(F)cc2)Cc2ccco2)c1` was 25.1 µM [falling, single point]; that for `Cc1ccc(N2C(=O)CS(=O)(=O)C23C(=O)N(Cc2ccc(Cl)cc2)c2ccccc23)cc1C` (configuration not stated) was 0.00631 µM [falling, full curve, poor fit]. In the case of `COc1ccc(-n2c(Cc3cccn3C)nnc2SCC(=O)Nc2ccccc2OC)cc1`, the concentration at half-maximal activity (AC50) under setting [1] was 10 µM [falling, partial curve].

Take `COc1ccc(OC)c(NC(=O)Cn2c(=O)n(-c3ccc(Cl)cc3)c(=O)c3c(C)c(C)sc32)c1`: the AC50 under setting [1] is 5.01 µM [falling, full curve, poor fit]. For the compound `O=C1CC(c2ccc(F)cc2F)c2cc3c(cc2N1)OCO3` (configuration not stated), the concentration at half-maximal activity (AC50) under setting [1] was 3.16 µM [falling, single point]. As for `COc1ccc(C(=O)N(c2ccc(C)cc2)S(=O)(=O)c2ccc(C)cc2)cc1`, the half-maximal activity concentration (AC50) under setting [1] is 25.1 µM [falling, partial curve]. In the case of `CC1CCN(C(=O)CSc2nnc(NC(=O)Nc3ccccc3)s2)CC1`, the AC50 under setting [1] was 3.16 µM [rising, partial curve]. Turning to `COc1cc(C(=O)Nc2cc(-c3ccccc3)[nH]n2)cc(OC)c1OC`, the AC50 under setting [1] is 3.16 µM [falling, full curve]. As to `Cc1ccc2c(c1)N(C(=O)CCC(=O)NCc1cccs1)CC(C)O2` (configuration not stated), the AC50 under setting [1] was 0.631 µM [rising, partial curve, poor fit].

For the compound `COC(=O)c1ccccc1NC(=O)Cn1c(CCC(=O)O)ccc1-c1ccc(C)cc1`, under setting [1], the AC50 is 2.51 µM [falling, partial curve]. On to `CCOC(=O)C1CCN(C(=O)Cn2ncc3c4ccccc4n(Cc4ccccc4)c3c2=O)CC1`, for which the AC50 under setting [1] was 20 µM [falling, single point].

In the case of `N#CCCS(=O)(=O)c1nnnn1-c1ccccc1`, under setting [1], the AC50 was 2 µM [falling, full curve]. In the case of `Cc1ccc(NC(=O)c2c(C)oc3ncn(CC(C)C)c(=O)c23)nc1`, the AC50 under setting [1] is 1.26 µM [rising, full curve].

For `Cc1ccc(C(=O)CC2(O)C(=O)N(Cc3ccc4c(c3)OCO4)c3ccccc32)cc1` (configuration not stated), the AC50 under setting [1] is 25.1 µM [falling, partial curve]. Turning to `CCc1ccc(OCC(=O)N(C)C2CCS(=O)(=O)C2)cc1` (configuration not stated), under setting [1], the half-maximal activity concentration (AC50) was 12.6 µM [falling, partial curve].

On to `Cc1cccc(CN2C(=O)c3ccccc3S(=O)(=O)c3ccc(C(=O)NC4CCCCC4)cc32)c1`, for which the AC50 under setting [1] was 10 µM [falling, partial curve]. For the compound `Cc1ccc(C)c(NS(=O)(=O)c2ccc3oc(=O)c4ncn(C)c4c3c2)c1`, the AC50 under setting [1] is 39.8 µM [falling, single point]. Turning to `CCn1c(=O)c2sccc2n2c(CCC(=O)Nc3ccc(C(C)C)cc3)nnc12`, the AC50 under setting [1] was 3.98 µM [falling, partial curve]. Take `COc1ccccc1-c1nnc(SCC(=O)Nc2nc(-c3ccccc3)cs2)n1C`: the concentration at half-maximal activity (AC50) runs as follows: (measured here: IkB-luc green channel) 39.8 µM [falling, single point]; (measured here: control luc red channel) 15.8 µM [falling, partial curve]. As to `Cc1ccc(CNC(=O)CCc2nc3cccnc3n2Cc2ccccc2)cc1`, the AC50 under setting [1] was 6.31 µM [falling, single point]. `CC(=O)Nc1ccc(NC(=O)C(NS(=O)(=O)c2ccc(Br)s2)c2ccccc2)cc1` (configuration not stated): the AC50 under setting [1] was 0.0158 µM [falling, full curve]. On to `CCOc1ccc2nc(N(Cc3cccnc3)C(C)=O)sc2c1`, for which, under setting [1], the AC50 is 39.8 µM [rising, single point].

In the case of `COc1cc(S(=O)(=O)NC2CCCCC2)ccc1Cl`, under setting [1], the AC50 is 20 µM [falling, partial curve]. Consider `Cc1cc(Nc2ccc(O)cc2)ccc1N`, for which the concentration at half-maximal activity (AC50) under setting [1] is 6.31 µM [rising, full curve] [measured here: IkB-luc green channel].

`O=C(CCNS(=O)(=O)c1ccc2c(c1)CCN2C(=O)C1CC1)N1CCN(c2cccc(C(F)(F)F)c2)CC1`: under setting [1], the AC50 was 31.6 µM [falling, partial curve, poor fit].

Regarding `COCc1oc2ccc(NS(=O)(=O)c3ccc(C)cc3)cc2c1C(=O)OC`, the AC50 under setting [1] is 2 µM [falling, partial curve]. On to `CCCC(=O)Nc1ccccc1C(=O)OCc1cc(=O)n2nc(C(C)C)sc2n1`, for which, under setting [1], the AC50 was 10 µM [falling, partial curve]. On to `CC(=O)c1cccc(NC(=O)Cn2cc(C(=O)c3cccc(Cl)c3)c(=O)c3ccc(C)nc32)c1`, for which the AC50 under setting [1] is 12.6 µM [falling, partial curve].

With `CCCOC(=O)c1[nH]c2c(c1C)C(=O)CC(c1cc(OC)c(OC)c(OC)c1)C2` (configuration not stated), the concentration at half-maximal activity (AC50) under setting [1] was 3.16 µM [falling, full curve].

With `Cc1cc(C)cc(NC(=O)N2CCN(C(=O)c3nsc4ccccc34)CC2)c1`, under setting [1], the half-maximal activity concentration (AC50) is 0.0501 µM [falling, full curve, poor fit].

Consider `COC(=O)c1ccc(-n2c(/C=C/c3cc(OC)c(OC)c(OC)c3)nc3cc(Cl)ccc3c2=O)cc1`, for which the AC50 under setting [1] was 10 µM [falling, partial curve]. Take `COCCn1c(SCc2ccc(C(=O)OC)o2)nc2cc(Cl)ccc2c1=O`: the half-maximal activity concentration (AC50) under setting [1] is 39.8 µM [falling, single point]. For the compound `CCOc1ccc2c(c1)c(=O)c(S(=O)(=O)c1ccc(CC)cc1)cn2Cc1cccc(Cl)c1`, the concentration at half-maximal activity (AC50) under setting [1] is 15.8 µM [falling, partial curve].

`CCCSc1ncnc2c1c(-c1ccccc1)cn2-c1ccccc1OC`: under setting [1], the concentration at half-maximal activity (AC50) is 5.01 µM [falling, single point]. Regarding `Cc1ccc(NC(=O)C2CCN(S(=O)(=O)c3cccc4cccnc34)CC2)nc1`, the concentration at half-maximal activity (AC50) under setting [1] was 12.6 µM [falling, partial curve].

For the origin of these results see PubChem BioAssay AID445 (National Center for Advancing Translational Sciences (NCATS), 2006).
